Experimental data: PubChem BioAssay AID1347423 (Functional Genomics Laboratory (NCATS/FGL), 2020)
Among all 52,000 sequences or so, about 210 (0.4%) were called active.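 Rule for the calls: active = gene whose silencing raises cell survival under the drug, median off-target-corrected z-score across its silencing RNAs 2 or more; inactive = the rest.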 Some of the results follow.

Experiment: Resistance to Poly (ADP-Ribose) Polymerase inhibitor: Gene Identification via Genome-wide siRNA Screen
Conditions: mouse BRCA2 R2336H ES cells, olaparib, CellTiter-Glo viability; active compounds read high
Method in brief: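 Genome-wide siRNA screen (3 siRNAs/gene, 20 nM) in mouse ES cells carrying hypomorphic BRCA2 R2336H; olaparib 500 nM added 48 h post-transfection, CellTiter-Glo viability 72 h later. Normalized to plate-median negative control; MAD z-scores, gene median, seed-adjusted.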

| Sequence | z-score |
| --- | --- |
| GCUAUCAAAGCUAAUACAUTT against Mrps9 | inactive: -0.437 |
| GGAAAGACAGGUAAACUCATT against Slc6a17 | inactive: -1.25 |
| GGCUCCAACAUAGAAAUGATT against Tpbpa | inactive: -1.14 |
| CCAUCUAUGAUCCCAGAGCTT against Fbxw9 | inactive: 0.241 |
| GGCUAUUGAUUCCUAUUAGTT against C030002J06Rik | inactive: -1.56 |
| CCGGAGCACCAUUAAGGUUTT against Nudt11 | inactive: -1.14 |
| GGGUCGAUCAUUGUGGUCATT against Olfr508 | inactive: 0.0811 |
| CCUUUUGUUUUACCUACUCTT against Tbx22 | inactive: 0.661 |
| GGAGAUUAAGAUUCAGCAGTT against Nmt2 | inactive: 1.32 |
| GCUUUAAGGCCGUCAUCCATT against Gale | inactive: -0.498 |
| GGUCUGGAUCAGAAGUCAATT against Hrh1 | inactive: 2.27 |
| GGCGCAUGUGCGGAAGAAATT against Tbc1d17 | inactive: -0.633 |
| GCAAGGACCAAAUUACAUATT against Itgb3bp | inactive: -0.404 |
| CCAACGGCAAUGGUUGCAUTT against Thoc3 | inactive: -0.513 |
| GGUCCAUUGAGCACUUUGCTT against B930041G04 | inactive: 0.281 |
| CCAGUCAUUGUGCUUGUUATT against Sox12 | inactive: 0.751 |
| GCGAAUUCGAGAAAACCUGTT against Celsr1 | inactive: 0.494 |
| GGAUAGCCUGGAACUUAUCTT against Tnni3k | inactive: 0.838 |
| GGAGAACACGCUCAGAAGATT against 1110058A15Rik | inactive: 0.305 |
| GGCUCUUCACUCAUGUAUGTT against Olfr703 | inactive: 0.615 |
| CGUUUGCUCUAAAGCCAGGTT against BC004728 | inactive: 1.02 |
| GCCGGAGACUAUCUGGUAGTT against Hps3 | inactive: -0.447 |
| GGACAUGUUUCCUGACCUGTT against B230208J24Rik | inactive: 0.734 |
| GGACCUGUCCCGUCAAAGATT against 1500015O10Rik | inactive: -0.00945 |
| CCGUUAAUGCCAUGAUCAATT against Olfr1364 | inactive: -0.251 |
| CGGCAUUGUCACAGUUACGTT against Zfp496 | inactive: -0.4 |

| Sequence | z-score |
| --- | --- |
| GCAGGUAAAAUACAGGAGCTT against Gdi3 | inactive: 1.05 |
| GGUUGACGACUUUGUGUGUTT against Olfr90 | inactive: 0.92 |
| GCUCUCUAUAGGAUAAUGGTT against LOC328644 | inactive: 2.39 |
| GGAUCUUGAAGAUAAGAGCTT against 1810009A15Rik | inactive: 0.832 |
| GAGUGUGGAAGGAAGAGGUTT against D730049H07Rik | inactive: 0.621 |
| GGUGUCAAGAAGAAUGUCCTT against 2410080H04Rik | inactive: -0.957 |
| CCCUAGAGAUGGUGGGUCUTT against Olfr934 | inactive: -0.47 |
| GGGUCUUUCUAAAAAGUUCTT against D930046M03 | inactive: 0.527 |
| CGUAAACUUAGGAAUUUUCTT against E230015L20Rik | inactive: 1.58 |
| GGAGCUGAUAAGAAAACUATT against Gbp2 | inactive: -0.474 |
| GGUGAUUCAGAUAAAAGAGTT against Mbtps1 | inactive: 0.064 |
| GGCUCAAAGACUGAAUCCCTT against Recql4 | inactive: 1.49 |
| CCCACAAUCUUUUUGUAAATT against Sost | inactive: 1.15 |
| GGAAGUGGCCUUAAAGUAUTT against 4933429F08Rik | inactive: -0.872 |
| GCACCAUUCUAGGAGUCAUTT against 1300002A08Rik | inactive: -0.0419 |
| GGCCUUAGAUGGGAAAUUGTT against Pttg1 | inactive: 0.0255 |
| GGAUGUAAAAUCCAUUGUUTT against 1700030B17Rik | inactive: -2.51 |
| GCUGUUUCAGGUAUCUGUCTT against Tcam1 | inactive: -1.25 |
| GGGACUUCAGACAGUUAUCTT against Es2el | inactive: 1.6 |
| GGUAUUAGCGGAUUGUUACTT against Spg7 | inactive: 1.09 |
| GCAAUGUUAUUUUCACCAGTT against Slc3a1 | inactive: 2.14 |
| GGUGCCAACUUUAAAAGCUTT against Zfp161 | inactive: -0.136 |
| CGGGUCUAUCGAUUUCUUCTT against Fcna | inactive: 0.611 |
| GCUAUUGGCGAGAAUUAAATT against Smarca1 | inactive: 1.58 |
| GCCAUUUGUCCACAAAAUGTT against 2210023G05Rik | inactive: -0.552 |
| GGAAGUUAUCAACAUAGUUTT against Ern1 | inactive: -0.237 |

| Sequence | z-score |
| --- | --- |
| GCGUAGAGACAAAGUAGAATT against Gpr141 | inactive: 2.86 |
| GGUGUCAUUCAACUUGCAUTT against Rnase10 | inactive: 0.422 |
| CGGAAUAUAGAAUGAAACCTT against Cd200r3 | inactive: -0.737 |
| GGAAACUUUUGGAAGACUATT against Ptdsr | inactive: 1.59 |
| GGAUUUUGUCGGCAAGGCCTT against 2310035K24Rik | inactive: 0.982 |
| CCUUAUGGAUUUAGCAUCATT against Lamb3 | inactive: 0.918 |
| GGAACAGCAUGCUUACAUUTT against Ugt1a9 | inactive: -0.956 |
| GGGCAUGUAUAUAAUGUUCTT against Kifc3 | inactive: -0.221 |
| GCUGAAGUGUGUCACACGUTT against 2410001C21Rik | inactive: 0.0492 |
| GGAUGUGUACAAUCGUACCTT against C730027E14Rik | inactive: 0.154 |
| UCCCUAUCACUUGAGUUUUTT against 4921509E05Rik | inactive: 0.0896 |
| GCAAGACUAAGACUAUCUCTT against Olfr1340 | inactive: 0.576 |
| GCCUAGUGAAUACAUCACUTT against Cyp4f18 | inactive: -0.383 |
| CCAGUUCCUUUGUAGGCAATT against Ctf1 | inactive: -2.36 |
| GGCUUCCAUUACCAUGAUGTT against Olfr381 | inactive: 1.93 |
| CCUAUGAAUGAUUUUGGUGTT against Pcdhb7 | inactive: 0.169 |
| CCGAUCCAAUGCACCAAACTT against 2310008M10Rik | inactive: 0.396 |
| GGUGGACUUCAUGUAGAUUTT against Ga17 | inactive: -1.45 |
| GGAGACAUUGCUAUAUAUGTT against Hmgcs1 | inactive: -0.697 |
| GGAAAACAUUGAAACAGUGTT against 2700038L12Rik | inactive: -0.348 |
| GGAGUCCAAAUUCUUGGGUTT against Ik | inactive: -1 |
| CCAACAGAACGACUGUGGGTT against D18Ertd653e | inactive: -1.02 |
| GGGACUUAAUUUAUAGGGATT against Tagln2 | inactive: -0.129 |
| GGGAGCUAGAUCUUUCAUCTT against A930016D02Rik | inactive: -0.974 |
| GGGUUUCUGAGGUUUAAUUTT against Arhgef3 | inactive: -0.000353 |
| CCAGAGCUUAUUGAGAUGCTT against Myh4 | inactive: -0.0538 |

A stretch of the results above:

| Sequence | z-score |
| --- | --- |
| GGUGAUUCAGAUAAAAGAGTT against Mbtps1 | inactive: 0.064 |
| GGCUCAAAGACUGAAUCCCTT against Recql4 | inactive: 1.49 |
| CCCACAAUCUUUUUGUAAATT against Sost | inactive: 1.15 |
| GGAAGUGGCCUUAAAGUAUTT against 4933429F08Rik | inactive: -0.872 |
| GCACCAUUCUAGGAGUCAUTT against 1300002A08Rik | inactive: -0.0419 |
| GGCCUUAGAUGGGAAAUUGTT against Pttg1 | inactive: 0.0255 |

Further results follow:

| Sequence | z-score |
| --- | --- |
| CCGAUUGAAAUAUGAAUCCTT against C330016O16Rik | inactive: 0.682 |
| GCACCAAUCAAUGAGGAGATT against Was | inactive: -0.678 |
| CCUCUCCAUCUUUGACUUATT against Olfr961 | inactive: -1.29 |
| GGAUUUAAGUCAAAUCUCUTT against BC053073 | inactive: 1.21 |
| CCUAUGAUUACUUGAACCCTT against Bak1 | inactive: 0.416 |
| CGGCCAUAUAAUUUUGAAUTT against Tbx20 | inactive: -0.0257 |
| GGUUUCGAUAGGAAUAUGATT against Pkp1 | inactive: 0.93 |
| GGAAAACAUAUUUCAGCAGTT against C130032F08Rik | inactive: 1.22 |
| GCUGUUUUCUUUCCAUUUCTT against Olfr981 | inactive: -0.116 |
| GGAGAAGUUACUGAUGAGATT against D11Lgp1e | inactive: -0.176 |
| GGUGGAAGAAGAAAUUGUCTT against Tpd52l2 | inactive: -0.594 |
| CCCUGUAUAUUGCAUUUCCTT against Pcdhb21 | inactive: 0.769 |
| GCCUUCUUAACUUCAUCACTT against Taar5 | inactive: 0.741 |
| GGAGCAAAGCCUGUGAACUTT against Dffa | inactive: 0.856 |
| CCUCUUACCGCUUUCAAUATT against Arf1 | inactive: 0.105 |
| GCCUCCUAUAUAAACAUUGTT against Olfr1321 | inactive: -0.983 |
| GGUGGCUAUUGAUGAAAACTT against Zfyve19 | inactive: 0.893 |
| GCCUAACAUCUGUCCCUAUTT against D15Ertd405e | inactive: 1.67 |
| CCUGAAGCGGAAGUGCAAATT against Wnt10b | inactive: 1.17 |
| CCUUGUGACUCUAAGAAUATT against Bcl2l14 | inactive: 0.0613 |
| GGUUUAGCAUCGUCCUAUATT against Crmp1 | inactive: -1.2 |
| GGGUGCUAUUCUCCUUUUUTT against 9830134C10Rik | inactive: -0.59 |
| GGGUAAUACUCUUUGGUGCTT against Olfr594 | inactive: 0.166 |
| GGAAAAAGAUCCAGAUUUGTT against Adprh | inactive: 0.964 |
| GCUUCAGGCAAGGUUUAAATT against Ppp1r2 | inactive: 0.218 |
